# Source: the supplement of paper PMC3334620
# The full ranking holds about 33,000 sequences; the median of “E-score (-0.5 to 0.5)” is about -8e-05, and the highest 2% start at about 0.23. The list shows a part of the results.
# Biological target: T1, Nrg2 (UniProt P38082)
# T1 sequence: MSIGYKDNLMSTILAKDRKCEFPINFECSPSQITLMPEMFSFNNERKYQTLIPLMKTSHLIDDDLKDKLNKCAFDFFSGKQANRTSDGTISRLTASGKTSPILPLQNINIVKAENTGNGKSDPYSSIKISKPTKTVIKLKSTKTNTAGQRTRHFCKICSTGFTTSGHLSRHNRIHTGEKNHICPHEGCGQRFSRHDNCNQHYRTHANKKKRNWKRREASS
# Test: PBM E-score (8-mer binding enrichment) (E-score (-0.5 to 0.5)); higher = stronger / more preferred TF binding
# Details: protein concentration: 100 nM; construct: GST-full length
# Outline: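 Full-length yeast transcription factors or their DNA-binding domains, GST-tagged and expressed with PURExpress, were applied at about 100-200 nM to universal all-10-mer Agilent arrays. These arrays had been made double-stranded by primer extension on fresh or once-stripped slides. Detection used fluorescent anti-GST, normalisation used masliner, and E-scores for ungapped eight-base words pooled with reverse complements came from the Universal PBM Analysis Suite.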
row,Sequence,PBM E-score
1,CTAACCCA,-0.00624
2,CTTTAGGA,-0.0706
3,TGTTGAAA,0.19
4,CGGCCCCC,-0.259
5,ATGAGCTA,0.069
6,AAGCTGTG,0.00179
7,GGGATTTA,-0.00047
8,GTTAAATA,-0.0438
9,ACCATCAT,-0.0921
10,GAACGGCA,0.08
11,CAGCACGA,0.0405
12,CACGTAAC,-0.109
13,GCCGCTAC,0.117
14,AGTATGTG,0.0654
15,CACTATCA,0.0367
16,TCTTTGAA,-0.105
17,GAACAAAA,0.195
18,AACCAAAA,0.184
19,CAGTTCAA,0.0698
20,CCCACATA,-0.117
21,ACCCAGGA,-0.227
22,ATTTCTAG,0.0904
23,CCAGCACA,-0.0581
24,CGCTCCGC,-0.116
25,GTAGTGAA,0.0655

row,Sequence,PBM E-score
1,TAGGCTAA,-0.13
2,CACGCGAA,-0.135
3,AATCTGCA,0.0698
4,CACAAGTG,-0.208
5,GTGTATGA,-0.0712
6,ACGGTTAA,-0.153
7,ATGATCGG,0.0383
8,ATTTATGA,0.123
9,ATCCTTTA,-0.0227
10,AGAGGTAT,0.146
11,CGTTTGAC,0.0838
12,AAATTATC,0.146
13,AGATTGAC,0.0498
14,GTGTAGGA,0.0152
15,GACGTAAC,-0.0563
16,GAAGGATA,-0.0924
17,ACAGGCGC,-0.16
18,AGCAGAAG,-0.0369
19,TCGTATCA,0.0635
20,GAGCGCAA,-0.0151
21,GCGGGTTA,0.143
22,CCGCGAGA,-0.0513
23,CGAGTCAC,-0.151
24,TTCCCGAA,0.0661
25,TCCTACGA,-0.256

row,Sequence,PBM E-score
1,AGTGGGGA,0.0197
2,AAGCTCTC,-0.148
3,AGTTACTC,0.0176
4,ACTGTGTA,0.128
5,ATATTTTG,0.00867
6,ACGCTATA,-0.104
7,CCTTTTAG,-0.209
8,AAATTGAC,0.0103
9,ATATATAA,0.24
10,ATGTCTCA,-0.00934
11,CCCGTATA,0.1
12,CCACACTC,-0.105
13,ACTCTGCT,-0.0865
14,ATGCGAGC,0.0133
15,ATACAAAA,0.218
16,ACACTTTC,0.0771
17,GCACGTAC,-0.125
18,ACAAAGAC,-0.0259
19,CTCTAAGC,0.0189
20,GCTGTGTA,-0.051
21,CATAGGGA,0.0275
22,CCCCCTCA,-0.379
23,CCGAATAG,-0.0206
24,ACCTAGGC,-0.182
25,CATCAGTC,-0.0546

row,Sequence,PBM E-score
1,ACGTGGAT,-0.0278
2,ACGCAGTG,-0.256
3,ACCCCAAC,0.0849
4,ATGTACAA,0.0611
5,ACGGTACC,0.051
6,ACAATATA,0.227
7,CTCCAGTA,-0.0168
8,CTATGCAA,0.075
9,CGCTCCTC,-0.334
10,ACTGCCAT,0.102
11,TAACCAGA,-0.104
12,ACCGGGAT,0.00356
13,AGTCATAC,-0.0325
14,ACCCTACG,0.0347
15,CGTTCCGA,-0.143
16,GCACATCC,-0.0672
17,GGGAGGCA,-0.214
18,ATCCTCTC,-0.0127
19,GTCGCAAA,0.0589
20,CGTACCCC,0.0787
21,AGGCTGTA,-0.0917
22,ACAAAGAT,0.0695
23,ACATTATC,0.078
24,CTAGGCAG,-0.159
25,AATTCCTA,0.0693

row,Sequence,PBM E-score
1,GAGTCACA,0.0275
2,ACACCGGT,-0.112
3,ACATGGAA,0.0641
4,CCACAACA,-0.135
5,CGACCAGC,0.023
6,GGTGCATA,-0.0478
7,CTGTAAGC,0.0454
8,CAAGATCG,-0.0622
9,CTGTGGAA,0.123
10,CACTGGGC,-0.198
11,GCTAATCC,0.0447
12,ATGTAATA,0.13
13,GCGGACCA,0.189
14,TTGAGAAA,0.113
15,CAAGAGCC,0.061
16,CTTGAACA,-0.018
17,AAGCCGGA,0.202
18,AACGTCGC,-0.0096
19,CAGGGGAC,-0.00647
20,CGATGGCG,0.017
21,AATCCGGT,0.0653
22,TATCTGCA,-0.0215
23,ACCTCCCG,-0.177
24,AAATTCTT,-0.0189
25,GGCTCCTA,-0.0856

row,Sequence,PBM E-score
1,TACAAGGA,-0.123
2,CTTCACCC,0.0793
3,ACGTGCAA,0.139
4,GTTACGAA,0.0759
5,GAAACCAC,0.0608
6,CAGCCCGC,-0.269
7,CAAACACG,0.087
8,GACTAGAC,-0.112
9,GCCGTTCC,-0.102
10,TGCGCTAA,0.0259
11,CAGCAAAG,0.018
12,TATCTTGA,-0.0394
13,ATTGGCAG,-0.164
14,ACGCTGCC,-0.169
15,GTCTCGAA,-0.0529
16,AGTCTCTC,-0.163
17,AAACAATA,0.261
18,CCTAAGCC,-0.283
19,CAAACCAG,-0.128
20,CCCGAACC,-0.0844
21,GGTAACAC,0.0111
22,GGTCCTGA,0.112
23,CAGTGGTC,-0.176
24,CCGGTGCG,-0.127
25,CAGTCACG,-0.186

# An excerpt of these results, as tab-separated lines.
row	Sequence	PBM E-score
9	GCCGTTCC	-0.102
10	TGCGCTAA	0.0259
11	CAGCAAAG	0.018
12	TATCTTGA	-0.0394

# Look-ups from above.
# For PBM E-score, CGATGGCG shows 0.017
# For PBM E-score, CTCTAAGC shows 0.0189
# For PBM E-score, CCCACATA shows -0.117
# For PBM E-score, GTGTATGA shows -0.0712
# For PBM E-score, AAATTCTT shows -0.0189

# Later entries

row,Sequence,PBM E-score
1,CCTTATAC,0.0966
2,CCTGGTAG,0.0165
3,CACACGCA,-0.0633
4,CACACCGG,-0.0367
5,CTGCTGGC,-0.299
6,AAATATTT,0.106
7,ACCGTCCG,-0.238
8,CCACTCTA,0.128
9,GACACTCA,-0.152
10,AATTTTCA,0.0418
11,ACAGCTTG,-0.0272
12,CTGCCAGA,-0.123
13,ACTCCACT,-0.0926
14,TAATGCGA,0.072
15,CTTTCACC,-0.0112
16,AGTACACC,0.00106
17,CGCAGCTA,-0.0329
18,ATATACCG,0.204
19,GACGCAAA,0.113
20,GCTGACTA,-0.101
21,ACTATGCA,0.17
22,TAGCTTAA,0.0129
